Data on 1 molecule can be found in article PMC12720343.

Positions count from the first letter of the chain named. No constants are given. Whether binding was seen depends on the method and setting. Binding seen in cells or lysates may run through a third protein. Some entries that bind do so weakly or less than the wild type. Sequences can lack the tags named with a protein.

What all share (assay): pull-down; cells producing His-SpoIIQ_(44-283) variants mixed with cells producing SpoIIIAH_(26-218)-S, lysed together (50 mM Tris-HCl pH 8.0, 150 mM NaCl), loaded on Ni Sepharose HP, washed with 40 mM imidazole, eluted with 1 M imidazole; Western blot against S-tag and His-tag
(In general: Immunoblotting shows a protein as a band on a membrane.)

Assay [1] addresses T1, His-SpoIIQL109/118E_(44-283) (Bacillus subtilis) (UniProt P71044).
T1 sequence: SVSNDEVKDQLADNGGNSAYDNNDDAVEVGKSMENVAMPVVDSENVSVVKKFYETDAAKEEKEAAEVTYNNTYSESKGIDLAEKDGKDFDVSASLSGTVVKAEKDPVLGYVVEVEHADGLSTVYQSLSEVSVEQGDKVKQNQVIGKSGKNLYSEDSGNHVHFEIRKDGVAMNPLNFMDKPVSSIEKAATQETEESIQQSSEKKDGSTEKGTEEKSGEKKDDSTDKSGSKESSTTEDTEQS

Assay [2] addresses T2, His-SpoIIQL118F_(44-283) (Bacillus subtilis) (UniProt P71044).
T2 sequence: T1 sequence with E66L, E75F

Assay [3] addresses T3, His-SpoIIQ_(44-283) (Bacillus subtilis) (UniProt P71044).
T3 sequence: T1 sequence with E66L, E75L

B1: SpoIIIAH_(26-218)-S (domain or fragment, UniProt P49785 26-218)
chain: SPESKNAVQMQSEKSASDSGEVATEKAPAKQDTKEKSGTETEKGKEDGTKGTKDSSADKETSAEASEKGTVVTETADDDLFTTYRLDLEDARSKEREELNAIVSSDDATAKEKSEAYDKMTALSEVEGTEKQLETLIKTQGYEDALVNAEGDKINITVKSDKHSKSKATAIIDLVAKEIKTMKDVAVTFEPSK
Consider B1, for which the values for the binding result in assay [1], in assay [2] and in assay [3] were “no binding”, “binds” and “binds”, respectively.
